Results taken from publication PMC7819943, “Rice protein-binding microarrays: a tool to detect cis-acting elements near promoter regions in rice”.
The list shows a part of the results.

By UniProt entry, the sequences of proteins in these tests, tags left out.
UniProt Q0JBA9, entry or part of it: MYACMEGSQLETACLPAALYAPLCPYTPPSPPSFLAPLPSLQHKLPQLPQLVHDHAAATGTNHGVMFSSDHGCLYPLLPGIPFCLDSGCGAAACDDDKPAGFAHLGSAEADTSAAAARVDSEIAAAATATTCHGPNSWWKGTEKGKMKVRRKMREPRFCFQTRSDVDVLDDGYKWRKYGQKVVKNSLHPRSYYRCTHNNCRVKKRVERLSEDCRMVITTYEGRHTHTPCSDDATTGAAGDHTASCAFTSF

Target: OsWRKY34 (Oryza sativa, UniProt Q0JBA9 1-250)
Assay: protein-binding microarray (RPBM); PBS, 2% BSA, 51.3 ng/ul salmon testes DNA, 50 uM zinc acetate, 200 nM TF, 25 C, 1 h; high values mean tight binding
Conditions: protein: recombinant; tags: N-terminal polyhistidine and DsRed monomer fusion (pET32a); label: CyDye5-dUTP incorporated in the synthesized complementary strand; 3' TTTTT single-stranded linker to array surface; dsDNA, one strand shown
Method in brief: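 Transcription factors were each fused at the N-terminus to a polyhistidine tag plus DsRed and expressed in E. coli BL21-CodonPlus before Ni–NTA purification. Binding to a double-stranded custom Agilent array was carried out with 200 nM protein at 25 °C for 1 h in PBS, 2% BSA, salmon testes DNA and 50 µM zinc acetate. The binding signal is per-feature fluorescence intensity, in arbitrary units, on an Axon 4000B scanner.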

Point of comparison: “TAGCGGTTGGGGCAGGGGCCGTTCGGTTTCGCGGTCAAGCCGGAGTCACCTAGTGCAG”, binding signal 10500 fluorescence intensity (a.u.). Against it:
- TATTATAGTAGAGACTTGGTCAAACTTTCAAAAAGTTTGACGGAGTCACCTAGTGCAG — lower, 8120 fluorescence intensity (a.u.)
- GCCCGCCGGACCTGATCCCGCCTCACCTCACCGGCGCCGCCGGAGTCACCTAGTGCAG — lower, 9350 fluorescence intensity (a.u.)
- TTTACCACCAAAACTTTTGCCATTTGCTATTTGCTATTCCCGGAGTCACCTAGTGCAG — lower, 9180 fluorescence intensity (a.u.)
- AATTTAGCTCCAATTATGTCCAACTCATCTATAACTTACTCGGAGTCACCTAGTGCAG — lower, 8660 fluorescence intensity (a.u.)
- CCCATCTCACCTCCACCCTATCATCAAGTGACTAAATTCGCGGAGTCACCTAGTGCAG — lower, 10000 fluorescence intensity (a.u.)
- CTTCTTCGTTGCATTCATCTTGCTAGCTAGCTTAGCAATGCGGAGTCACCTAGTGCAG — lower, 8640 fluorescence intensity (a.u.)
- TAACACCAAATCTATTGGTCTCTTGTCCTCATCACCAAACCGGAGTCACCTAGTGCAG — lower, 8870 fluorescence intensity (a.u.)
- ATCTTTGGTGTTTCTTTGCGTATTTGTTATGATGATACCACGGAGTCACCTAGTGCAG — lower, 8070 fluorescence intensity (a.u.)
- AGGGTTGACTTTACTTCTTTGGGCCTCTCAGATCTGTTCTCGGAGTCACCTAGTGCAG — higher, 15900 fluorescence intensity (a.u.)
- CGATAAACCTTACCCTATTTAATTTTCCCTACTGAATTTTCGGAGTCACCTAGTGCAG — lower, 8980 fluorescence intensity (a.u.)
- CATGGGTGATATTTGGGATGTTCTTTTAAATCTTCATATACGGAGTCACCTAGTGCAG — lower, 8480 fluorescence intensity (a.u.)
- TCGACAAGCTAGATCCACACACAACAATAATCGCAACTATCGGAGTCACCTAGTGCAG — lower, 8490 fluorescence intensity (a.u.)
- CTCGCATCAGCCGCGTCATTTCTCACGTTTTTCCCACGTCCGGAGTCACCTAGTGCAG — higher, 10800 fluorescence intensity (a.u.)
- TAGTATCGGAGTATATCTTATTGTACCTGCTCTAACAATTCGGAGTCACCTAGTGCAG — lower, 8240 fluorescence intensity (a.u.)
- TTCGTGTCGCGATTTTCATGCAAATTGTACAATTAGTTTACGGAGTCACCTAGTGCAG — lower, 8290 fluorescence intensity (a.u.)
- TCTGAAATCCTGCAGCTCCTATCTCTCTTTCATCTTTCTTCGGAGTCACCTAGTGCAG — higher, 11400 fluorescence intensity (a.u.)
- CTCTCACACAGTCTCTCTCTCTCTCTCTCTCTCTCTCTCTCGGAGTCACCTAGTGCAG — lower, 9900 fluorescence intensity (a.u.)
- AAGTATCCGTAATTTCGTGTTTTTTTTTTTGCATGCAACCCGGAGTCACCTAGTGCAG — lower, 8130 fluorescence intensity (a.u.)
- ATGCAGACTTCTTATTAGCTTTGTTCCTTCCCTTCTTTTGCGGAGTCACCTAGTGCAG — lower, 9760 fluorescence intensity (a.u.)
- CCTTCGCTGTTACCACCTCTCCGCCCACCAAACGGGCTGACGGAGTCACCTAGTGCAG — higher, 13900 fluorescence intensity (a.u.)
- ATACTAGGAATATACTGGCTTGTTCTTCGTGAGATGCATACGGAGTCACCTAGTGCAG — lower, 9780 fluorescence intensity (a.u.)
- AGATTGTCTTGTTTTTCACCCTGTGAAATTCGCTCTCATCCGGAGTCACCTAGTGCAG — higher, 10600 fluorescence intensity (a.u.)
